{
  "source": "paper doi:10.1101/2024.09.30.615907",
  "binders": {"B1": {"name": "Plasmodium falciparum Niemann-Pick Type C1-Related protein (PfNCR1) (protein, UniProt Q8I266 1-1470)", "chain": "MFVKNFIHKLKELKQKSLDKFANLLYDYGGYVYDRPCTFIICSLICCLLLTCGFYFKEHEKDIYKLYSISNSYAYETNETINDFFYKSRRCFILVESNVNLLKPKILRELQKFEEGTKDIEVDLSEINECKTNSELPPEQSHVAKELYKTLIQRSEENLKSGKINGSLFDYSDLDENGKSVLSLAGKENNDDTLIEGDNKNDEETSANNNNNEDDNNEDDNNEDDNNEDDNNENDNNNNNEDDNNNDDDDDEDNEEEDEEKQKSLREKLYRKIYEMLKKKKENIVLDENNPNVNFTDYKDDVFYPYQYIPPMLIKADRCKLQNVFGDKNLNIDLREASDGLKKQITYTLEDICEKKYGDCNFSSLFLYYEKGNGYIDYPIKVDNLDFYVNRRTYKEMMFKGILGNMVYEKSGSKYIIKSANAIMTVIPLLNSHTYEPYALAYEKKLIDYVRFYNLDDIIQDEETNDDNDPFIRFHVFTDRSLEDEVDRISKIDNLTRLLLLIGVLLIFMYALFNNVTSVLYRSKPLCAVMGIFCGFLGFLSGSGFLYFLGVKSVPPAETVPFLVIGVGVDDVFVILNSYSLLFMVKDNKKRIQMCLKDSALAITVTTLTNIIAFLISAISPFYSICAFSLFTASSLFFGYLMVLTFLLSFLCIEAKLEKKKRNIFTGTFHLFRSIFMKSSKKNKKENKENNIHDDGDNDNDEKKKDLSLEVKNNEDDYENISIYEWIHNLYLFEESINKKKKNAALVYASNNGMSSNLNNVNEDGFPNPSKIVSMEDVKKRNIKKDDAYINKEDEEGGGYYNKDDNKKKDILGKKQKKNNNNVTLVSKKGEDNELDVYYENLDEKTNDKYKMNNIKSSKLKYDNDKKDGAIINNRPSSDEEYKEEKDKNKINILNDVFNDITIKPNENILLDRGDVIKSSGYDSSYNDLQSSSLPNPSSNEVLNKTTMVYNETDLKDNKKEIKSSKKNVKDIKKSDMIHDDTYDIINSNNKNILLSSNEINNNSNNTNKFNNNSTELATKDTQQFINGHDKNIYLLSSHDNALFYKYIYEEPKGNIGKYFRSLVKNYYVPFLSSRFGKTIVYIMFTIIIAMSIYGCTLMKKGIKYDKAFPVDSYVRRFTTAKIKYFPDFGDFIEVYYFDKHFINKYRGLEKNTKEAASSFLYSDLTDRQIMNSPKINKNVHWENTNLQEELINMHNTLESQEFVTSVANGFTFFLNKNKSSLRKENPQEFYEIFANWLKKDFVGNLFKNDFVFLNGKLVAWRFHYFQKNVDDSEISSKWLKACKQITKLENHNVQMVCFHLSSIFNETDESIIEVTLINLGITILTILVVTAYIIKGFYSCVIIALIIFLIDLCIFGFMCLCGITMNIISMVILVLSVGFSIDHTSHIVQAFSHSMGRTRDEKMKESLHLMIGPVLHSGLSTWFVISTLFFSNKDFTVIFFQTLSLVLFFSITFSSMFLPVLLSSFGPLH", "modifications": "N-linked N-acetylglucosamine (NAG) at N165 and N294"}},
  "target": "Plasmodium falciparum Niemann-Pick Type C1-Related protein (PfNCR1) (Plasmodium falciparum) (UniProt Q8I266)",
  "assay": "cryo-EM structure",
  "note": "These are yes or no findings as the source states them, for the method shown.",
  "data": [
    {"binder": "B1", "values": [
      {"measurement": "binding", "value": "no binding (tested: 7 mg/ml)"}
    ]}
  ]
}
